The exact form of at least one protein or probe is not confirmed. For part of these data: No signal at the amounts used counts as a negative. For part of these data: Weaker means in comparison with the reference protein, sequence or condition of that experiment.
Legend:
[1] = test system: Aureochrome 1a full length (PtAu1afull) (Phaeodactylum tricornutum); assay: EMSA; details: EMSA: 50 nM DNA in buffer C (20 mM HEPES pH 7.5, 100 mM NaCl, 10 mM MgCl2, 5% glycerol) plus 5% glycerol, 20 min at RT, dark or blue light (450 nm), recombinant protein, protein details: N-terminal His6 removed by TEV protease
[2] = test system: Aureochrome 1a full length (PtAu1afull) (Phaeodactylum tricornutum); assay: gel filtration (SEC) complex for SAXS; details: complex formed under blue light, 10 mM MgCl2, 1.5-fold molar excess DNA; recombinant protein; protein details: N-terminal His6 removed by TEV protease
[3] = test system: Aureochrome 1a bZIP-LOV (PtAu1abZIP-LOV) (Phaeodactylum tricornutum); assay: gel filtration (SEC) complex for SAXS; details: complex formed under blue light, 10 mM MgCl2, 1.5-fold molar excess DNA; recombinant protein; protein details: N-terminal His6 removed by TEV protease

AGTGGGTCATTGCAAGTAGTCGAT (double strand) [24-bp random DNA lacking target sequence]
binding result ([1]; blue light, 10 mM MgCl2, weak binding above 5-10 uM protein, label: none (GelRed stain)): binds more weakly
binding result ([1]; dark, 10 mM MgCl2, label: none (GelRed stain)): no binding

ATAGCGTCTGACGTGGTTCCC / TGGGAACCACGTCAGACGCTA [21-bp dsCYC2 probe with single-nucleotide overhangs]
binding result [2]: binds
binding result [3]: binds

GGAGTATCCAGCTCCGTAGCTGACGTGGCCTCTGG (double strand) [35-bp probe of Takahashi et al. 2007]
binding result ([1]; dark, 10 mM MgCl2, stable complex at much higher protein concentrations than without Mg, 388 nM DNA): binds more weakly
binding result ([1]; dark, no MgCl2, complex already at 2 nM protein, second band above 250 nM, 388 nM DNA): binds
